One experiment has as its target T1, rab6 Q72R (UniProt P20340).
T1 sequence: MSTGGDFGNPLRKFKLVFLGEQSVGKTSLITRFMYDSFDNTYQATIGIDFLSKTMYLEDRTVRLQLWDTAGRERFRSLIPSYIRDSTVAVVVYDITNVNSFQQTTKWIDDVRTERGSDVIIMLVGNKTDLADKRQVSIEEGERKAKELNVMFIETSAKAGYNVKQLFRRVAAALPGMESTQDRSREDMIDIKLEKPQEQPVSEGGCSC
As to the kind of experiment: two-hybrid; co-transformation of bait (pAS2-1) and prey (pGADT7) constructs in yeast Y190; plates lacking Trp, Leu and His with 50 mM 3-aminotriazol (his3), 30°C for 5-7 days; β-galactosidase filter lift with X-gal (lacZ).

The next experiment addresses T2, rab2 S20N (UniProt P61019).
T2 sequence: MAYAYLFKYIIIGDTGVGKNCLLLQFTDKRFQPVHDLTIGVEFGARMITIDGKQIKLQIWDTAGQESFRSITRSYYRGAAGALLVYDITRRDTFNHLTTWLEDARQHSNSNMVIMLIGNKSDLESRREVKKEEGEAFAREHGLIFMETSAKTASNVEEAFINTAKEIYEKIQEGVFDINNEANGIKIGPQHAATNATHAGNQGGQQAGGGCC
The description is as above.

Results are given in words; binding and its absence hold for the method and conditions named.

Regarding “Iporin ΔN847 (human) (domain or fragment)”, the binding entry with rab6 Q72R and with rab2 S20N was “no binding” each time.
